This is an account of results in article PMC9839780.

The chains behind the UniProt entries cited, without tags or fusion partners.
UniProt Q9UN81: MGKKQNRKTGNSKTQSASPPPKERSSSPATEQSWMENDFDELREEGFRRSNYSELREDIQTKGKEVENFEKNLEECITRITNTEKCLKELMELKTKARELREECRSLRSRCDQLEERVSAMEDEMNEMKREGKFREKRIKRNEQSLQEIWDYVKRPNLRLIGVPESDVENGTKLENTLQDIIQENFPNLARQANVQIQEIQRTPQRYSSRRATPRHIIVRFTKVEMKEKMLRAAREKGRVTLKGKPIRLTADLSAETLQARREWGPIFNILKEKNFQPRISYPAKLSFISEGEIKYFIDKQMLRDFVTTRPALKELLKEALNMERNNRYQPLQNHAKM
UniProt Q5H9U9: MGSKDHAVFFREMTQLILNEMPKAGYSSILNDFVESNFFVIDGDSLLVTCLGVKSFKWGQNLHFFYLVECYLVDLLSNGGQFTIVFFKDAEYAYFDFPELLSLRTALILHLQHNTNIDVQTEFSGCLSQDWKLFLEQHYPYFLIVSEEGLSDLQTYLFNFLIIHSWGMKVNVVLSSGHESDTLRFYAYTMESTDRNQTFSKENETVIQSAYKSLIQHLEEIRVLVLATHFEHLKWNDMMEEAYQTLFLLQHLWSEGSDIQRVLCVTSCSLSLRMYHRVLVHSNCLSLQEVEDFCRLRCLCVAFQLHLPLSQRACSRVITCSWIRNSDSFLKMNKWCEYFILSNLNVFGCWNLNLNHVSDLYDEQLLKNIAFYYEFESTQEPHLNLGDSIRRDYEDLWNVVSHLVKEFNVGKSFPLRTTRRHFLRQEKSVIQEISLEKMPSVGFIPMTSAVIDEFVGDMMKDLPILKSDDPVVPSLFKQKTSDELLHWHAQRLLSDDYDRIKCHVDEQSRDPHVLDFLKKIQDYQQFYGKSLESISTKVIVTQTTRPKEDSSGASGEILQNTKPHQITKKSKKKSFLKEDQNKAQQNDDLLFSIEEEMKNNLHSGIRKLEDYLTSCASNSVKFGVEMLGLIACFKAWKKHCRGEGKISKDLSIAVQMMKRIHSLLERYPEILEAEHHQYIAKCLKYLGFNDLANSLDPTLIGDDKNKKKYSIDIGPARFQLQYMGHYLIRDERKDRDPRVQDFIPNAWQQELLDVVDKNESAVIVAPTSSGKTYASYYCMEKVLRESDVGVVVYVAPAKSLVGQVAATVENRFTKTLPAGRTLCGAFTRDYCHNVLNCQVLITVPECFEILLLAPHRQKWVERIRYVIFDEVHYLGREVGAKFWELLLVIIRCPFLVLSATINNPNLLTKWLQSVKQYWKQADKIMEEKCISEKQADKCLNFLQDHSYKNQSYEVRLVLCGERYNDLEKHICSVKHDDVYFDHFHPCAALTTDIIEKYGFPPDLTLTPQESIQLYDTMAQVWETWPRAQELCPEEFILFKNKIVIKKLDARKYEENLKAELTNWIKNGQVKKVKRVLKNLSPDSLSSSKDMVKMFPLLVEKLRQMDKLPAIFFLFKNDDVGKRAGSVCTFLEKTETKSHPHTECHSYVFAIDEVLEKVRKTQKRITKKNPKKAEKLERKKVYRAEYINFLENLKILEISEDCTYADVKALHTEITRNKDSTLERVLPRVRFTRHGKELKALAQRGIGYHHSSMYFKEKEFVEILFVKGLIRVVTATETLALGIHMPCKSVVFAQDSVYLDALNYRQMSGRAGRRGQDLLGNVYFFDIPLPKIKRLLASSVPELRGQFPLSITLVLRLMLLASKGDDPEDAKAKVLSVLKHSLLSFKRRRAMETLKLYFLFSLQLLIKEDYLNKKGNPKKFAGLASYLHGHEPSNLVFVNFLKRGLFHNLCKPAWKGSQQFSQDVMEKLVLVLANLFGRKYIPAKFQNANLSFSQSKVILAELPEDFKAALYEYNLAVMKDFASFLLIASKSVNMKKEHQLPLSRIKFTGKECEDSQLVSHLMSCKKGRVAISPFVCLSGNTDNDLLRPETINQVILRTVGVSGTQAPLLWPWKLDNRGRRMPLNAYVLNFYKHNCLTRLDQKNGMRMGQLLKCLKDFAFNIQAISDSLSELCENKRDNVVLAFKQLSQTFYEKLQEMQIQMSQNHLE

Results are given in words; binding and its absence hold for the method and conditions named. Binding seen in cells or lysates may run through a third protein. Some entries that bind do so weakly or less than the wild type. Where a sequence is shown, tags or fusion partners need not be part of it.

B1: OASL-3xMYC fusion protein (pALAF022_hOASL-3xMYC) (protein, UniProt Q15646 1-514)
chain: MALMQELYSTPASRLDSFVAQWLQPHREWKEEVLDAVRTVEEFLRQEHFQGKRGLDQDVRVLKVVKVGSFGNGTVLRSTREVELVAFLSCFHSFQEAAKHHKDVLRLIWKTMWQSQDLLDLGLEDLRMEQRVPDALVFTIQTRGTAEPITVTIVPAYRALGPSLPNSQPPPEVYVSLIKACGGPGNFCPSFSELQRNFVKHRPTKLKSLLRLVKHWYQQYVKARSPRANLPPLYALELLTIYAWEMGTEEDENFMLDEGFTTVMDLLLEYEVICIYWTKYYTLHNAIIEDCVRKQLKKERPIILDPADPTLNVAEGYRWDIVAQRASQCLKQDCCYDNRENPISSWNVKRARDIHLTVEQRGYPDFNLIVNPYEPIRKVKEKIRRTRGYSGLQRLSFQVPGSERQLLSSRCSLAKYGIFSHTHIYLLETIPSEIQVFVKNPDGGSYAYAINPNSFILGLKQQIEDQQGLPKKQQQLEFQGQVLQDWLGLGIYGIQDSDTLILSKKKGEALFPAS
B2: hIFIT1-3xMYC fusion protein (pALAF016_hIFIT1-3xMYC) (protein, UniProt P09914 1-478)
chain: MSTNGDDHQVKDSLEQLRCHFTWELSIDDDEMPDLENRVLDQIEFLDTKYSVGIHNLLAYVKHLKGQNEEALKSLKEAENLMQEEHDNQANVRSLVTWGNFAWMYYHMGRLAEAQTYLDKVENICKKLSNPFRYRMECPEIDCEEGWALLKCGGKNYERAKACFEKVLEVDPENPESSAGYAISAYRLDGFKLATKNHKPFSLLPLRQAVRLNPDNGYIKVLLALKLQDEGQEAEGEKYIEEALANMSSQTYVFRYAAKFYRRKGSVDKALELLKKALQETPTSVLLHHQIGLCYKAQMIQIKEATKGQPRGQNREKLDKMIRSAIFHFESAVEKKPTFEVAHLDLARMYIEAGNHRKAEENFQKLLCMKPVVEETMQDIHFHYGRFQEFQKKSDVNAIIHYLKAIKIEQASLTRDKSINSLKKLVLRKLRRKALDLESLSLLGFVYKLEGNMNEALEYYERALRLAADFENSVRQGP
B3: HERC5-3xMYC fusion protein (pALAF023_hHERC5-3xMYC) (protein, UniProt Q9UII4 1-1024)
chain: MERRSRRKSRRNGRSTAGKAAATQPAKSPGAQLWLFPSAAGLHRALLRRVEVTRQLCCSPGRLAVLERGGAGVQVHQLLAGSGGARTPKCIKLGKNMKIHSVDQGAEHMLILSSDGKPFEYDNYSMKHLRFESILQEKKIIQITCGDYHSLALSKGGELFAWGQNLHGQLGVGRKFPSTTTPQIVEHLAGVPLAQISAGEAHSMALSMSGNIYSWGKNECGQLGLGHTESKDDPSLIEGLDNQKVEFVACGGSHSALLTQDGLLFTFGAGKHGQLGHNSTQNELRPCLVAELVGYRVTQIACGRWHTLAYVSDLGKVFSFGSGKDGQLGNGGTRDQLMPLPVKVSSSEELKLESHTSEKELIMIAGGNQSILLWIKKENSYVNLKRTIPTLNEGTVKRWIADVETKRWQSTKREIQEIFSSPACLTGSFLRKRRTTEMMPVYLDLNKARNIFKELTQKDWITNMITTCLKDNLLKRLPFHSPPQEALEIFFLLPECPMMHISNNWESLVVPFAKVVCKMSDQSSLVLEEYWATLQESTFSKLVQMFKTAVICQLDYWDESAEENGNVQALLEMLKKLHRVNQVKCQLPESIFQVDELLHRLNFFVEVCRRYLWKMTVDASENVQCCVIFSHFPFIFNNLSKIKLLHTDTLLKIESKKHKAYLRSAAIEEERESEFALRPTFDLTVRRNHLIEDVLNQLSQFENEDLRKELWVSFSGEIGYDLGGVKKEFFYCLFAEMIQPEYGMFMYPEGASCMWFPVKPKFEKKRYFFFGVLCGLSLFNCNVANLPFPLALFKKLLDQMPSLEDLKELSPDLGKNLQTLLDDEGDNFEEVFYIHFNVHWDRNDTNLIPNGSSITVNQTNKRDYVSKYINYIFNDSVKAVYEEFRRGFYKMCDEDIIKLFHPEELKDVIVGNTDYDWKTFEKNARYEPGYNSSHPTIVMFWKAFHKLTLEEKKKFLVFLTGTDRLQMKDLNNMKITFCCPESWNERDPIRALTCFSVLFLPKYSTMETVEEALQEAINNNRGFG

The target in this experiment is WT ORF1p-FLAG (L1.3 ORF1-encoded protein with a carboxyl-terminal FLAG epitope tag, expressed from pJM101/L1.3FLAG) in HEK293T cells (human) (UniProt Q9UN81). Put plainly: co-IP; HEK293T cells co-transfected with pJM101/L1.3FLAG and a 3xMYC-tagged ISG expression vector; anti-FLAG M2 on Dynabeads Protein G, Lysis150 buffer, 4 °C; western blot with anti-MYC.
For “hDDX60L-3xMYC fusion protein (pALAF021_hDDX60L-3xMYC) (from UniProt Q5H9U9 1-1706)”, the binding entry is reported as “binds”. Under B1 stands “binds”. Regarding B2, the binding entry is reported as “binds”. Under B3 stands “binds”.
